Source: the supplement of paper PMC5407854, “Inhibitor of ppGalNAc-T3-mediated O-glycosylation blocks cancer cell invasiveness and lowers FGF23 levels” (eLife, 2017)
This is one part of the list. Small differences around the control level are noise.

System: ppGalNAc-T3 sensor
Experiment: T3 sensor activation Q score (MG/GFP ratio z-score vs DMSO controls) (SD units); higher = more sensor activation (inhibition of ppGalNAc-T3 glycosylation)
Details: HEK293 sensor cells; 10 µM; 6 h
Procedure: (§1)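 Cells were treated with compound at 10 uM for 6 h, then MG/GFP ratio was read by flow cytometry (10,000 cells per well, duplicate wells). Q = (R - R_neg)/SD_neg relative to DMSO vehicle controls; the signal rises when the glycosyltransferase is inhibited.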

| SMILES | T3 sensor activation Q score |
| --- | --- |
| Cc1ccc(NC2=C([N+](=O)[O-])CS(=O)(=O)C2)cc1 | -0.01 |
| CC(C)(C)n1ncc(O)c(Cl)c1=O | -0.475 |
| CCCN1CCC(N(C)CCN(C)C)CC1 | 0.415 |
| COc1cc2c(cc1OC)CN(Cc1ccc(N(C)C)cc1)CC2 | 0.22 |
| O=C(c1cccc(F)c1)N1CCOCC1 | 0.18 |
| COc1ccc(CNC2=CC(=O)CC(C)(C)C2)cc1 | -0.275 |
| O=C(c1ccc(Br)o1)N1CCCCCC1 | 0.415 |
| CC(C)c1ccc(NC(=O)[C@@H]2C[C@@H]2c2ccccc2)cc1 | -0.405 |
| CCC(C)Sc1nc(O)c(C(C)CC)c(=O)[nH]1 (stereo not given) | 0.28 |
| Cc1nc2nc[nH]c2cc1Br | 0.46 |
| CC(=O)C1=C(O)C(=O)N(CCO)C1c1ccccc1F (stereo not given) | 0.805 |
| CN(Cc1ccccc1)Cc1c(F)cccc1F | 0.44 |
| Cc1ccc(OCCCN2CCOCC2)cc1C | 0.29 |
| c1ccc(CNc2ncnc3nc[nH]c23)cc1 | 0.8 |
| CCOc1ccc(CN2CCSCC2)cc1 | 0.71 |
| OC1CCN(Cc2ccc(F)cc2)CC1 | 0.24 |
| CC(C)Oc1ccc(NC(=O)c2ccco2)cc1 | -0.55 |
| CC1=CCC(C(=O)O)C(C(=O)O)C1 (stereo not given) | 1.15 |
| CN(Cc1ccccc1)C(=O)c1cccnc1 | -0.415 |
| COc1cc(C)c(CN2CCCCC2)cc1C | 0.345 |

| SMILES | T3 sensor activation Q score |
| --- | --- |
| CCC(CC)NS(=O)(=O)c1cccc(C(=O)O)c1 | 1.15 |
| Cc1ccc(-c2ccccc2N)o1 | -0.07 |
| CC(=O)c1cc(F)c(N2CCN(C(=O)c3ccc(F)cc3F)CC2)cc1C | 0.835 |
| CC(=O)Nc1ccc(NC(C)=O)cc1 | -0.535 |
| Nc1ccc(CCC(=O)O)cc1 | 0.65 |
| O=C(Nc1ccccc1C(=O)O)c1ccccc1 | -1.27 |
| CC(=O)c1cccc(NC(=O)C(C)N2C(=O)c3ccccc3C2=O)c1 (stereo not given) | -0.395 |
| O=C(O)CCNCc1ccccc1 | -0.86 |
| CCc1ccc(S(=O)(=O)Nc2ccc([N+](=O)[O-])cc2C)cc1 | 0.41 |
| Cc1nnc2c(N3CCOCC3)nc3ccccc3n12 | -0.59 |
| Cc1c(N2C(=O)CCC2=O)c(=O)n(-c2ccccc2)n1C | 0.575 |
| CC(=O)c1c(C)nc(C)c(C(C)=O)c1-c1ccccc1 | 0.205 |
| COc1c[nH]n(-c2ccccc2)c(=O)c1=O | 1.12 |
| COc1ccc(CN2CCC(O)CC2)c(C)c1C | 0.385 |
| CCc1cccc(NC2CC(=O)N(c3ccc(Br)cc3)C2=O)c1 (stereo not given) | 0.205 |
| CN1CCCN(Cc2ccccc2F)CC1 | 1.1 |
| Cc1ccn2c(-c3csc(Nc4ccc(N)cc4)n3)c(C)nc2c1 | -1.04 |
| O=C(c1ccc(Cl)cc1Cl)N1CCCc2ccccc21 | 0.685 |
| O=[N+]([O-])c1cccc(CN2CCC(O)CC2)c1 | 0.47 |
| CCC(Sc1nc(=O)cc(N)n1-c1ccccc1)C(=O)O (stereo not given) | 0.03 |

Some values from the entries so far:
`O=C(c1ccc(Cl)cc1Cl)N1CCCc2ccccc21` – T3 sensor activation Q score: 0.685
`c1ccc(CNc2ncnc3nc[nH]c23)cc1` – T3 sensor activation Q score: 0.8
`OC1CCN(Cc2ccc(F)cc2)CC1` – T3 sensor activation Q score: 0.24
`CN(Cc1ccccc1)Cc1c(F)cccc1F` – T3 sensor activation Q score: 0.44
`CC(=O)c1cc(F)c(N2CCN(C(=O)c3ccc(F)cc3F)CC2)cc1C` – T3 sensor activation Q score: 0.835
`Nc1ccc(CCC(=O)O)cc1` – T3 sensor activation Q score: 0.65

System: ppGalNAc-T2 sensor
Experiment: T2 sensor activation Q score (MG/GFP ratio z-score vs DMSO controls) (SD units); higher = more sensor activation (inhibition of ppGalNAc-T2 glycosylation)
Details: HEK293 sensor cells; 10 µM; 6 h
Procedure: as §1

| SMILES | T2 sensor activation Q score |
| --- | --- |
| Cc1ccc(NC2=C([N+](=O)[O-])CS(=O)(=O)C2)cc1 | 0.88 |
| CC(C)(C)n1ncc(O)c(Cl)c1=O | -0.19 |
| CCCN1CCC(N(C)CCN(C)C)CC1 | -0.715 |
| COc1cc2c(cc1OC)CN(Cc1ccc(N(C)C)cc1)CC2 | 0.605 |
| O=C(c1cccc(F)c1)N1CCOCC1 | -1.21 |
| COc1ccc(CNC2=CC(=O)CC(C)(C)C2)cc1 | -0.9 |
| O=C(c1ccc(Br)o1)N1CCCCCC1 | -0.875 |
| CC(C)c1ccc(NC(=O)[C@@H]2C[C@@H]2c2ccccc2)cc1 | 0.76 |
| CCC(C)Sc1nc(O)c(C(C)CC)c(=O)[nH]1 (stereo not given) | 0.25 |
| Cc1nc2nc[nH]c2cc1Br | -0.005 |
| CC(=O)C1=C(O)C(=O)N(CCO)C1c1ccccc1F (stereo not given) | -0.84 |
| CN(Cc1ccccc1)Cc1c(F)cccc1F | 0.44 |
| Cc1ccc(OCCCN2CCOCC2)cc1C | 0.64 |
| c1ccc(CNc2ncnc3nc[nH]c23)cc1 | 0.325 |
| CCOc1ccc(CN2CCSCC2)cc1 | 0.48 |
| OC1CCN(Cc2ccc(F)cc2)CC1 | 1.2 |
| CC(C)Oc1ccc(NC(=O)c2ccco2)cc1 | -1.75 |
| CC1=CCC(C(=O)O)C(C(=O)O)C1 (stereo not given) | -0.305 |
| CN(Cc1ccccc1)C(=O)c1cccnc1 | -1.73 |
| COc1cc(C)c(CN2CCCCC2)cc1C | 0.875 |

| SMILES | T2 sensor activation Q score |
| --- | --- |
| CCC(CC)NS(=O)(=O)c1cccc(C(=O)O)c1 | -0.14 |
| Cc1ccc(-c2ccccc2N)o1 | 0.69 |
| CC(=O)c1cc(F)c(N2CCN(C(=O)c3ccc(F)cc3F)CC2)cc1C | 0.18 |
| CC(=O)Nc1ccc(NC(C)=O)cc1 | -0.03 |
| Nc1ccc(CCC(=O)O)cc1 | 0.435 |
| O=C(Nc1ccccc1C(=O)O)c1ccccc1 | -1.32 |
| CC(=O)c1cccc(NC(=O)C(C)N2C(=O)c3ccccc3C2=O)c1 (stereo not given) | 0.04 |
| O=C(O)CCNCc1ccccc1 | -1.66 |
| CCc1ccc(S(=O)(=O)Nc2ccc([N+](=O)[O-])cc2C)cc1 | -0.465 |
| Cc1nnc2c(N3CCOCC3)nc3ccccc3n12 | -0.07 |
| Cc1c(N2C(=O)CCC2=O)c(=O)n(-c2ccccc2)n1C | 2.1 |
| CC(=O)c1c(C)nc(C)c(C(C)=O)c1-c1ccccc1 | 0.255 |
| COc1c[nH]n(-c2ccccc2)c(=O)c1=O | 1.15 |
| COc1ccc(CN2CCC(O)CC2)c(C)c1C | -1 |
| CCc1cccc(NC2CC(=O)N(c3ccc(Br)cc3)C2=O)c1 (stereo not given) | -1.23 |
| CN1CCCN(Cc2ccccc2F)CC1 | 0.06 |
| Cc1ccn2c(-c3csc(Nc4ccc(N)cc4)n3)c(C)nc2c1 | -0.035 |
| O=C(c1ccc(Cl)cc1Cl)N1CCCc2ccccc21 | 1.09 |
| O=[N+]([O-])c1cccc(CN2CCC(O)CC2)c1 | 0.69 |
| CCC(Sc1nc(=O)cc(N)n1-c1ccccc1)C(=O)O (stereo not given) | 0.185 |
